Results deposited as PubChem BioAssay AID504786 (Drosophila RNAi Screening Center, 2011)
The screen tested about 21,000 reagents; this is an unselected part of those that have a named target and a result. 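Primary screen; positive scores mean lost reporter signal, so the sign may be inverted from the usual convention.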 Names joined by + are all predicted targets of the reagent. Not all columns of the deposit are shown.

Assay: 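Knock-downs reducing HIF reporter induction by the iron chelator DFO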 (primary screen)
System: Drosophila S2 cells with a stable HIF luciferase reporter
Reagents: long dsRNA against Drosophila genes, about 0.2 µg dsRNA per well of a 384-well plate
Time to read-out: three days of knock-down, then 20 h of DFO before reading
Treatment: desferrioxamine (DFO) at 100 µM, an iron chelator that mimics hypoxia, for 20 h
Measured: 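HIF reporter luminescence in cells given 100 µM DFO for 20 h, using the mouse ldh-a hypoxia-response element, scored as per-plate z-scores; higher means greater loss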
Direction: z-score: higher = stronger loss of HIF reporter signal

The opening 5 records as a preview:
gene | dsRNA | z-score, replicate 1 | z-score, replicate 2
ftz (GeneID 40834) | DRSC12626 | -0.1 | -0.2
Myo10A (GeneID 32028) | DRSC19834 | -0.3 | -0.1
Myo10A (GeneID 32028) | DRSC19837 | -0.3 | -0.6
kay (GeneID 3772082) | DRSC13962 | -0.2 | -0.2
kay (GeneID 3772082) | DRSC15048 | -0.6 | -1

Results, repeating the preview:
gene | dsRNA | z-score, replicate 1 | z-score, replicate 2
ftz (GeneID 40834) | DRSC12626 | -0.1 | -0.2
Myo10A (GeneID 32028) | DRSC19834 | -0.3 | -0.1
Myo10A (GeneID 32028) | DRSC19837 | -0.3 | -0.6
kay (GeneID 3772082) | DRSC13962 | -0.2 | -0.2
kay (GeneID 3772082) | DRSC15048 | -0.6 | -1
kay (GeneID 3772082) | DRSC16977 | -0.2 | -1.1
CG34109 (GeneID 4379890) | DRSC02169 | -0.2 | -0.1
CG34109 (GeneID 4379890) | DRSC02224 | -0.1 | 0
CG34109 (GeneID 4379890) | DRSC02225 | -0.2 | -0.7
CG7140 (GeneID 40445) | DRSC11799 | -0.3 | -0.4
ari-2 (GeneID 37542) | DRSC04672 | -0.2 | -0.3
nuf (GeneID 39572) | DRSC11379 | -0.2 | 0.1
SpdS (GeneID 41167) | DRSC16408 | -0.4 | -0.8
CG13930 (GeneID 38210) | DRSC08399 | -0.2 | -0.5
CG10550 (GeneID 43061) | DRSC14251 | -0.3 | -0.3
Pop2 (GeneID 39366) | DRSC10537 | -0.4 | -1.4
Obp50d (GeneID 246436) | DRSC05483 | -0.1 | -0.2
CG13049 (GeneID 39788) | DRSC09930 | -0.4 | -0.3
CG42365 (GeneID 37469) | DRSC04266 | -0.1 | -0.1
CG31862 (GeneID 318989) | DRSC01245 | 0.3 | 0.4
CG43980 (GeneID 2768995) | DRSC11500 | -0.5 | -1.1
CG43980 (GeneID 2768995) | DRSC11646 | -0.4 | -0.6
CG13721 (GeneID 38556) | DRSC08330 | -0.2 | -0.1
Parp1 (GeneID 3355109) | DRSC07725 | 0.3 | -0.2
Parp1 (GeneID 3355109) | DRSC07778 | -0.4 | -0.1
Parp1 (GeneID 3355109) | DRSC07780 | -0.3 | -0.3
Rhp (GeneID 32531) | DRSC20279 | -0.3 | -0.5
mld (GeneID 2768685) | DRSC13681 | -0.5 | -0.5
mld (GeneID 2768685) | DRSC14622 | -0.2 | -0.5
CG42557 + CG42558 | DRSC13963 | -0.4 | 0
CG42557 + CG42558 | DRSC16329 | -0.2 | 1
CG18273 (GeneID 30991) | DRSC18150 | -0.4 | 0.9
CG18273 (GeneID 30991) | DRSC18505 | -0.3 | -0.4
CG14565 (GeneID 40423) | DRSC11726 | -0.4 | -0.6
CG34188 (GeneID 5740108) | DRSC05549 | -0.2 | -0.3
Cpr76Ba (GeneID 40120) | DRSC11060 | -0.3 | 0
Arf1 (GeneID 40506) | DRSC11606 | -0.6 | -1
Chmp1 (GeneID 40036) | DRSC10401 | -0.3 | -0.5
Cht2 (GeneID 38223) | DRSC08650 | -0.1 | 0
DMAP1 (GeneID 37339) | DRSC06044 | -0.2 | -0.4
sad (GeneID 44858) | DRSC16630 | -0.4 | -1
CG31955 (GeneID 319045) | DRSC00285 | -0.1 | -0.2
CG3603 (GeneID 31289) | DRSC18317 | -0.1 | -0.4
frac (GeneID 38850) | DRSC10867 | -0.4 | -0.5
CG13403 (GeneID 32366) | DRSC19535 | -0.1 | 0.1
CG6607 (GeneID 42925) | DRSC16073 | 0.1 | -0.4
tll (GeneID 43656) | DRSC17085 | -0.3 | -0.8
CG12502 (GeneID 38102) | DRSC08281 | -0.3 | -0.5
CG2278 (GeneID 31751) | DRSC18226 | -0.2 | -0.6
CG10991 (retired record) (GeneID 40730) | DRSC12156 | -0.3 | -0.5
CG42496 + Ppcdc | DRSC03886 | 2.1 | 0.2
Csp (GeneID 40459) | DRSC11860 | -0.3 | -0.5
Las (GeneID 40259) | DRSC11772 | -0.1 | -0.4
CG6420 (GeneID 43218) | DRSC16035 | -0.3 | 0.2
Usp15-31 (GeneID 37954) | DRSC04426 | 0.4 | 0
Usp15-31 (GeneID 37954) | DRSC04532 | 0.6 | 0.9
RnrS (GeneID 36280) | DRSC07533 | 2.4 | 1.6
CG15449 (GeneID 33079) | DRSC20521 | -0.2 | 0.5
CG13676 (GeneID 38906) | DRSC10035 | -0.1 | 0.1
CG11164 (GeneID 32323) | DRSC19392 | -0.1 | 0
ATPsynbeta (GeneID 43829) | DRSC17194 | 0.6 | 0
wam (GeneID 42755) | DRSC15171 | -0.5 | -0.6
CG10139 (GeneID 36626) | DRSC05972 | -0.2 | 0.5
ste24c + CG30461 | DRSC05639 | 0 | -0.3
ste24c + CG30461 | DRSC07316 | -0.4 | -0.6
stet (GeneID 38169) | DRSC08246 | -0.3 | 0.3
stet (GeneID 38169) | DRSC08283 | -0.5 | 0.8
CG6912 (GeneID 41820) | DRSC16132 | 0 | -0.7
RpL23A (GeneID 38208) | DRSC08694 | -0.2 | -0.2
CG31007 (GeneID 318553) | DRSC14029 | -0.2 | -0.4
CG32081 (GeneID 326194) | DRSC09861 | -0.3 | -0.4
CG3862 (GeneID 33261) | DRSC00631 | 0 | -0.5
CG32195 (GeneID 317907) | DRSC09533 | -0.3 | -0.2
CG1344 (GeneID 35500) | DRSC04837 | -0.2 | -0.1
BaraA1 + BaraA2 | DRSC05417 | -0.2 | -0.3
Nos (GeneID 34495) | DRSC03381 | -0.4 | 0
dgt2 (GeneID 34610) | DRSC02548 | -0.2 | 0.2
CG31782 (retired record) (GeneID 318938) | DRSC01554 | -0.1 | 0.7
CG31782 (retired record) (GeneID 318938) | DRSC01556 | -0.4 | -0.7
rdx (GeneID 41704) | DRSC14526 | 2.5 | 3.4
rdx (GeneID 41704) | DRSC16580 | 2 | 1.3
mbc (GeneID 42817) | DRSC16995 | 0.5 | 0.1
puf (GeneID 42935) | DRSC15875 | -0.4 | -0.6
